This experiment addresses plectin, endogenous in myoblasts (mouse (endogenous in myoblasts)) (UniProt Q9QXS1). Briefly: co-IP; lysates of differentiated wild-type myoblasts (20 mM Tris-HCl pH 8.0, 1 mM EDTA, 200 mM NaCl, 0.5% Nonidet P-40); immunoprecipitation with pan-plectin antibodies (rabbit antiserum #9) and protein A/G sepharose beads; immunoblot.

Amino acid sequences for entries named in this document (tags omitted).
UniProt Q9QXS1: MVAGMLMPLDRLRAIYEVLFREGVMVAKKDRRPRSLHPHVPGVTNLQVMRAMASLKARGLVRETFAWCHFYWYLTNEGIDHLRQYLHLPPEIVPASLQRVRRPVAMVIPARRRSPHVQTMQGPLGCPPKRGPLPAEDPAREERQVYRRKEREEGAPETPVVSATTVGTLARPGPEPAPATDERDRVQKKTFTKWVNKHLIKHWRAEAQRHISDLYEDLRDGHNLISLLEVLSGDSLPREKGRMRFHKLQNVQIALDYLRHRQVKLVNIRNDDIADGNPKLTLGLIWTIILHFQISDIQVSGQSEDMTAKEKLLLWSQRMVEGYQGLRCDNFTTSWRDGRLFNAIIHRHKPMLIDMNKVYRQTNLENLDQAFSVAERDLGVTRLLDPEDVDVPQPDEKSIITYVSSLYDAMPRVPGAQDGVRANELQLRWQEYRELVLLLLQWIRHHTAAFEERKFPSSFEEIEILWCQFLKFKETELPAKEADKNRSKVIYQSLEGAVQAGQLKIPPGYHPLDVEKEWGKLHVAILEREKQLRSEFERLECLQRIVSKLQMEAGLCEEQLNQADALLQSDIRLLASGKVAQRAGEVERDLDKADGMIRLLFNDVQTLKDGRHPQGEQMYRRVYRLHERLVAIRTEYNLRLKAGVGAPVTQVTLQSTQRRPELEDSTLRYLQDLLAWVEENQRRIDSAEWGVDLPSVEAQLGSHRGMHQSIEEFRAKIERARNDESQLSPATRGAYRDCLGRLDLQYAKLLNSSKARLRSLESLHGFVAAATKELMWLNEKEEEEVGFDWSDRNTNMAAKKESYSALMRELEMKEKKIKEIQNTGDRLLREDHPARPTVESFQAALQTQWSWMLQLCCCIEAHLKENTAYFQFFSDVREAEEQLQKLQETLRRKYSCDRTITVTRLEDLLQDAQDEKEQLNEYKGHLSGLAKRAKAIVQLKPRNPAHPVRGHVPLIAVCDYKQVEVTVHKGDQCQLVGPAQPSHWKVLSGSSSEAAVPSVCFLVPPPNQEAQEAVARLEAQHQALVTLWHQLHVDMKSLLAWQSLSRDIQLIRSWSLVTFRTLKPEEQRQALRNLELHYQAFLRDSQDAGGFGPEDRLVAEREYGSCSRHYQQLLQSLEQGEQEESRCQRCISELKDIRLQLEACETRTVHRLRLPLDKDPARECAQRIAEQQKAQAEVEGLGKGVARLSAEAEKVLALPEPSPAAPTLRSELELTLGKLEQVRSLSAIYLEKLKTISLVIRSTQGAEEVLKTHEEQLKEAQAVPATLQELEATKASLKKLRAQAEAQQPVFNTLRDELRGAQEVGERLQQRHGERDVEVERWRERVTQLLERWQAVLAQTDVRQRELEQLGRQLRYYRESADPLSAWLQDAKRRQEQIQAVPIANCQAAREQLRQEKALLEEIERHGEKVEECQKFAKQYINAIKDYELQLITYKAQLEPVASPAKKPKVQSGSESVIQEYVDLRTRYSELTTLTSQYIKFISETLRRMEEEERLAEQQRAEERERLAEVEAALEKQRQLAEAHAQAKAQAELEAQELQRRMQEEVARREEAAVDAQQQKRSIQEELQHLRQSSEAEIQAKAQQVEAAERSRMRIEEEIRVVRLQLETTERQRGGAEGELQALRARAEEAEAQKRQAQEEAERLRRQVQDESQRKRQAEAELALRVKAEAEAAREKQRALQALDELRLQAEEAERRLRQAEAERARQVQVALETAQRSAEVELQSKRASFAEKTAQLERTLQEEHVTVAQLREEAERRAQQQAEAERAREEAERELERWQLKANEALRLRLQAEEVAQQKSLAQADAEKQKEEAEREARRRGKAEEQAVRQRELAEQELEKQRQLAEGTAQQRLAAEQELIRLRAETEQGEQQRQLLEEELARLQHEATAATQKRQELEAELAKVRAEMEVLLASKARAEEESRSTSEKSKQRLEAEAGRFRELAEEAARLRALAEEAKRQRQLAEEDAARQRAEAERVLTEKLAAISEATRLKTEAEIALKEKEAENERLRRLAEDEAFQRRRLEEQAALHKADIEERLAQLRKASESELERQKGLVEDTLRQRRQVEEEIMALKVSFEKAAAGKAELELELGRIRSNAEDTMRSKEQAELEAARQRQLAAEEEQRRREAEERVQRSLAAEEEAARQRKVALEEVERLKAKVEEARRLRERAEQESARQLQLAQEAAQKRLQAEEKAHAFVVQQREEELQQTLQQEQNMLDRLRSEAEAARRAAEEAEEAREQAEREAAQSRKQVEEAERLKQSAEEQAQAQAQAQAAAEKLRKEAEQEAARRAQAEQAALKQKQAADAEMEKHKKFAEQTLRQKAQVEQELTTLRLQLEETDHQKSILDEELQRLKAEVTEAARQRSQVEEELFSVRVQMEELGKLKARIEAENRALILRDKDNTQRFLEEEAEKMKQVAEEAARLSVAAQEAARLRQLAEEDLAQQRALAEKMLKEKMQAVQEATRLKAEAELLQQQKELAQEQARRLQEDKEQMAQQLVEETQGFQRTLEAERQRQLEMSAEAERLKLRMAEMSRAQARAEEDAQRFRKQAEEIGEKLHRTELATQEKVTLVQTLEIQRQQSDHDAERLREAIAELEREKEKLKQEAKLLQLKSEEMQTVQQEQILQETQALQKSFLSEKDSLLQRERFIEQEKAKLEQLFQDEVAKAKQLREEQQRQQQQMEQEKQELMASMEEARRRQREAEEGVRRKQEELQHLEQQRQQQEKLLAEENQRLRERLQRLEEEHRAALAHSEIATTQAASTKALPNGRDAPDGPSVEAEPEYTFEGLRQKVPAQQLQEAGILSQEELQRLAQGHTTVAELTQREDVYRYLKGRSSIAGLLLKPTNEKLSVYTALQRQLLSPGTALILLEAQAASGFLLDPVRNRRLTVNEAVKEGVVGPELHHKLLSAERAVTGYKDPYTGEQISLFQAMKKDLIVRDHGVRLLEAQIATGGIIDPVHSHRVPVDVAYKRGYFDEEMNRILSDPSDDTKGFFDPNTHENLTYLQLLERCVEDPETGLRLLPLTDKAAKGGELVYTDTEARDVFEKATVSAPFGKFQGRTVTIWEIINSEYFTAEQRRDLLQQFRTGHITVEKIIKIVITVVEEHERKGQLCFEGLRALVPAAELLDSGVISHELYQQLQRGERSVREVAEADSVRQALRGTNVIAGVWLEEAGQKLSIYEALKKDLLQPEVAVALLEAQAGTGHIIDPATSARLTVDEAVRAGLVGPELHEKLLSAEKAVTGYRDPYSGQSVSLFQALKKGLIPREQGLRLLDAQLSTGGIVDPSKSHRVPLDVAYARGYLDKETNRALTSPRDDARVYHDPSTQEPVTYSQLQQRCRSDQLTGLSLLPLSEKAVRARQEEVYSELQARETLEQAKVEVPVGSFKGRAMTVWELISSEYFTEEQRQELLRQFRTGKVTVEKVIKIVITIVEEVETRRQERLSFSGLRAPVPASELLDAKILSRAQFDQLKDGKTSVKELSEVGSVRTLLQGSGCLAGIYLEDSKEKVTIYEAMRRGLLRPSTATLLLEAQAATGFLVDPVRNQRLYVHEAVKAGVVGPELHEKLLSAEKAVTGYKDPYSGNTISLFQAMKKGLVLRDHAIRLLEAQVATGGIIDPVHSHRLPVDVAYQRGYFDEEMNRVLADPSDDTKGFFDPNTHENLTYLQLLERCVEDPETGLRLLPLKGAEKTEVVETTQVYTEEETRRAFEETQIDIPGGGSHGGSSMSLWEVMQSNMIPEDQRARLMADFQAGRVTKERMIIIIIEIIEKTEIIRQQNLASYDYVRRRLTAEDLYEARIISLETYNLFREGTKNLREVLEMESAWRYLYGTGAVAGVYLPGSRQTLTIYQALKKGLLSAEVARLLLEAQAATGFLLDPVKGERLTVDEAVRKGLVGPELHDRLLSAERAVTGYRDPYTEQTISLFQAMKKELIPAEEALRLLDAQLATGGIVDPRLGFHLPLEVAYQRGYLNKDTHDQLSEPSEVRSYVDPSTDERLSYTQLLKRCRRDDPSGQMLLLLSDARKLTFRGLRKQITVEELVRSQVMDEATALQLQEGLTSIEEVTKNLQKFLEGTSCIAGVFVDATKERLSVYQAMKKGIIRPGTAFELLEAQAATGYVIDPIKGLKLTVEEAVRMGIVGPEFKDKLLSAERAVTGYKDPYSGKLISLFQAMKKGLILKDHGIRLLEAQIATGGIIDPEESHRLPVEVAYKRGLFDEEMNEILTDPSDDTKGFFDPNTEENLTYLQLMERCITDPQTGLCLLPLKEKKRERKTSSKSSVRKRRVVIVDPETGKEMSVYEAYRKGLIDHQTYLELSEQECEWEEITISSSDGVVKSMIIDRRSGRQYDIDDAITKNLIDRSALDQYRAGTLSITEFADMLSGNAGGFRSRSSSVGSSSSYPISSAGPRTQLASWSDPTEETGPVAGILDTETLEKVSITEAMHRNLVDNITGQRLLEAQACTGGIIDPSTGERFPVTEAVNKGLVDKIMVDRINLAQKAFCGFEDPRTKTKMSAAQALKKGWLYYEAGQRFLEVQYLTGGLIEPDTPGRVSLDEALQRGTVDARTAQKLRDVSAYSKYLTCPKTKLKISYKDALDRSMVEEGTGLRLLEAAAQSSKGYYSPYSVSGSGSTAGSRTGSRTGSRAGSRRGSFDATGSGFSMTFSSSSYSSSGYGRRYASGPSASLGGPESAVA

No constants are given. Whether binding was seen depends on the method and setting. Binding seen in cells or lysates may run through a third protein. Some binding calls cover weakened binding; strength is not graded here.

B1: synpo2, endogenous in myoblasts (protein, UniProt Q91YE8 1-1087)
chain: MGTGDFICISMTGGAPWGFRLQGGKEEQQPLQVAKIRSQSKASGSGLREGDEVVSINGNPCADLTYPEVIKLMEGITDSLHLLVKRPSSGTSETLDSESETTNHQHLTHEGPMESTTLQIQQATETQSEDFFLAPVQTKVPLTEDQSNAWGYAECPKEEQAPPMLGSQEGHLVEEVILRQKAEAGQPGHVVELQLSLSKERHQCTSGPIVTLQGNDKSTSPDPDWSSQLERTVHINSIPAPEKADTSLTSSTSSGRELRVIQGRDPGGAGLPQVEVILDCSDRLKAEECRLQTGRGCVASPVEGGRSEAPPSLVSFAVSSEGTEHGEDQRSGKDQSRPHKHRARHARLRRSESLSEKQVKEAKSKCKSIALLLTDAPNPNSKGVLMFKKRRRRARKYTLVSYGTGELEREEEEEEDQEAGDKDEISEVAFLGTSESEVDEELLSDVDDNTQVVNFDWDSGLVDIEKRLNRGDKMEMLPDTTGKGALMFAKRRERMEQFTAQNEEEKTGGMAGGGPDALQTDGLRTMTSYQRKEESVRMQSSVSESSFQMGRSLASVPQQNGFSGVSETAGAQRMFPMNRTAKPFLGSMNQPAAPFSPTRSVTSPISDFPAPPPYSAVSPPPEAFSRGVSSPVAGPAQPPPWPQPAPWSQPAFYDSSEQIASRDERIAVPAKRTGILQEAKRRGTTKPMFTFKETKVSPNPELLSLLQNAEGKRGTGGDSGPEEDYLSLGAEACNFMQSSAKQKTPPPVAPKPAVKSPSSSQPVAPVSPVWSPGVAPAQRPAFSTSNPPNPPQVTAVSSIKIAQPAAPPARPASALNLAGPFKGPQAVVVSHNYTPKPSAPTPLVNAAPAGAGGPSNELPGMSGKGAQLFAKRQSRMEKYVVDSDTVQAHTVRAQSPTPSLPASWKYSSNVRAPPPVAYNPIHSPSYPLAAIKSQPPGAQASKTSKKKGKKPLNTLDVMKHQPYQLNASLFTFQPPDSKDGLPQKSTVKVSSAPAMKQALPPRQANVGSPTNAQASSVYSVPAYTSQPNFFAAEATSPVSASPVPVSVPTSPKQESTSTSYFVAPRPKFSAKKSGVTVQVWKPSVVEE
As to B1, the binding entry is listed as “binds”.

The record behind these values is paper PMC10177080.
